In US20100137561 (published 2010):
Square brackets hold non-standard residues; d marks the D form. * marks the point of attachment. Gln(Trt) = N[C@@H](CCC(=O)NC(c1ccccc1)(c1ccccc1)c1ccccc1)C(=O)O; Pbf = Cc1c(C)c(S(=O)(=O)*)c(C)c2c1OC(C)(C)C2; Trt = c1ccc(C(c2ccccc2)(c2ccccc2)*)cc1; Fmoc = O=C(OCC1c2ccccc2-c2ccccc21)*; Boc = CC(C)(C)OC(=O)*; OtBu = CC(C)(C)O*; tBu = CC(C)(C)*

Assays:
[1] = general procedure: hybrid (solid and solution phase) peptide synthesis; H-Gly-2-CT resin (2-chlorotrityl), loading 0.43 mmol/g; DIC/6-Cl HOBT (solid phase); BOP/HOBt/DIEA (fragment coupling in solution)
[2] = general procedure: hybrid (solid and solution phase) peptide synthesis; H-Gly-2-CT resin; DIC/6-Cl HOBT (solid phase); BOP/HOBt/DIEA (fragment coupling in solution); conditions: whole synthesis, scale of the general procedure 100.00 g resin
[3] = coupling step, HPLC (area normalisation, AN)
[4] = whole synthesis, HPLC (area normalisation, AN), scale of the general procedure 100.00 g resin

Substance: Boc-Asp(OtBu)-Ser(tBu)-Trp(Boc)-Met-Glu(OtBu)-Glu(OtBu)-Val-Ile-Lys(Boc)-Leu-Cys(Trt)-Gly-Arg(Pbf)-Glu(OtBu)-Leu-Val-Arg(Pbf)-Ala-Gln(Trt)-Ile-Ala-Ile-Cys(Trt)-Gly-Met-Ser(OtBu)-Thr(OtBu)-Trp-Ser(OtBu)-OtBu
- step yield ([1]; coupling step): 99.3%
- crude HPLC purity [1, 3]: 56.4% AN
- step yield ([1]; coupling step, based on Fragment 2+3'): 93.2%

Substance: Boc-D(OtBu)S(tBu)W(Boc)ME(OtBu)E(OtBu)VIK(Boc)LC(Trt)G-OH
- crude yield [2]: 98.4%
- crude HPLC purity [1, 4]: 78.8% purity, AN

Substance: Fmoc-Met-Ser(OtBu)-Thr(OtBu)-Trp-Ser(OtBu)-OtBu
- crude HPLC purity [1, 3]: 87.3% a. n.

Substance: Fmoc-R(Pbf)E(OtBu)LVR(Pbf)A[Gln(Trt)]IAIC(Trt)G-OH
- crude yield [2]: 81.0%
- crude HPLC purity [1, 4]: 91.9% purity, a. n.

Substance: H-Arg(Pbf)-Glu(OtBu)-Leu-Val-Arg(Pbf)-Ala-Gln(Trt)-Ile-Ala-Ile-Cys(Trt)-Gly-Met-Ser(OtBu)-Thr(OtBu)-Trp-Ser(OtBu)-OtBu
- step yield ([1]; coupling step): 95.3%
- final HPLC purity [1, 3]: 48.6% AN
- step yield ([1]; coupling step, based on Fragment 2): 104.4%

Substance: H-Asp-Ser-Trp-Met-Glu-Glu-Val-Ile-Lys-Leu-Cys-Gly-Arg-Glu-Leu-Val-Arg-Ala-Gln-Ile-Ala-Ile-Cys-Gly-Met-Ser-Thr-Trp-Ser-OH
- crude HPLC purity ([1]; late stage modification step, HPLC (area normalisation, AN)): 19.4% AN
